{"source": "PubChem BioAssay AID1671195 (Yale University, 2021)", "test": "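Genes whose knockdown alters LDL uptake in liver cancer cells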 (primary screen)", "system": "human Huh7 hepatoma cells", "reagent": "siRNA pool against human genes, 18 nM", "time to read-out": "about 2 to 2.5 days of knockdown, then 8 h LDL uptake", "treatment": "DiI-labelled LDL at 30 µg/ml for 8 h, in lipoprotein-deficient serum medium", "measured": "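Per-cell DiI-LDL intensity by automated imaging; well means scaled to the plate median and given as a robust z-score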", "scale": "robust z-score: higher = more LDL uptake after knockdown", "active means": "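Active when two or more replicates show a robust z-score above 2 or below -2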", "note": "In all, the deposit lists about 22,000 reagents; below is a part drawn at random. About 1,510 of all reagents (6.9%) were called active. 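Active includes knockdowns raising or lowering LDL uptake; positive z-scores mean more uptake, negative mean less.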"}
{"gene symbol":"LOC339782 (retired record)","robust z-score, replicate 1":0.289,"robust z-score, replicate 2":0.443,"robust z-score, replicate 3":0.672,"Call":"inactive"}
{"gene symbol":"THAP2 (THAP domain containing 2)","robust z-score, replicate 1":0.775,"robust z-score, replicate 2":1.29,"robust z-score, replicate 3":0.297,"Call":"inactive"}
{"gene symbol":"CCDC40 (coiled-coil domain 40 molecular ruler complex subunit)","robust z-score, replicate 1":-0.471,"robust z-score, replicate 2":0.423,"robust z-score, replicate 3":-0.254,"Call":"inactive"}
{"gene symbol":"MAP1LC3A (microtubule associated protein 1 light chain 3 alpha)","robust z-score, replicate 1":0.832,"robust z-score, replicate 2":0.0238,"robust z-score, replicate 3":1.05,"Call":"inactive"}
{"gene symbol":"RETN (resistin)","robust z-score, replicate 1":-1.14,"robust z-score, replicate 2":0.483,"robust z-score, replicate 3":0.0777,"Call":"inactive"}
{"gene symbol":"RAB3A (RAB3A, member RAS oncogene family)","robust z-score, replicate 1":0.694,"robust z-score, replicate 2":0.625,"robust z-score, replicate 3":0.383,"Call":"inactive"}
{"gene symbol":"RASGRP3 (RAS guanyl releasing protein 3)","robust z-score, replicate 1":-0.534,"robust z-score, replicate 2":-1.07,"robust z-score, replicate 3":-1,"Call":"inactive"}
{"gene symbol":"RPE (ribulose-5-phosphate-3-epimerase)","robust z-score, replicate 1":-0.162,"robust z-score, replicate 2":-0.171,"robust z-score, replicate 3":-0.204,"Call":"inactive"}
{"gene symbol":"CD99 (CD99 molecule (Xg blood group))","robust z-score, replicate 1":0.399,"robust z-score, replicate 2":-0.3,"robust z-score, replicate 3":-0.166,"Call":"inactive"}
{"gene symbol":"ADARB2 (adenosine deaminase RNA specific B2 (inactive))","robust z-score, replicate 1":-1.99,"robust z-score, replicate 2":-2.6,"robust z-score, replicate 3":-2.22,"Call":"active"}
{"gene symbol":"KRTAP19-4 (keratin associated protein 19-4)","robust z-score, replicate 1":-0.421,"robust z-score, replicate 2":-0.295,"robust z-score, replicate 3":-0.111,"Call":"inactive"}
{"gene symbol":"FCGR3B (Fc gamma receptor IIIb)","robust z-score, replicate 1":-0.42,"robust z-score, replicate 2":-0.672,"robust z-score, replicate 3":-0.586,"Call":"inactive"}

Targets listed so far whose gene name begins with C or c:
{"gene symbol":"CCDC40 (coiled-coil domain 40 molecular ruler complex subunit)","robust z-score, replicate 1":-0.471,"robust z-score, replicate 2":0.423,"robust z-score, replicate 3":-0.254,"Call":"inactive"}
{"gene symbol":"CD99 (CD99 molecule (Xg blood group))","robust z-score, replicate 1":0.399,"robust z-score, replicate 2":-0.3,"robust z-score, replicate 3":-0.166,"Call":"inactive"}
